## Percent effect of library compounds

Values are the deposited “Percent Effect”, in %.
The record does not define 0% and 100%; most values in the screen are far below 50% and negative numbers occur (in some assays of this library far below -100).
This is an unselected part of the compounds tested.
Two or more numbers in one place are separate tests of the same structure; such repeats can differ widely.

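Whole-cell growth test on Mycobacterium tuberculosis, read after 4 days in a medium based on cholesterol and the lipid DPPC; the read-out is not stated. Tested at 50 µM. Direction is inferred from retests: higher values go with more growth inhibition. Size under these conditions: about 69,000 compounds, about 370 of them at 50% or above in at least one test.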

Result for O=C1N(Cc2ccc(F)c(F)c2)CCCC1(O)CNCc1ccccn1 (stereo not shown) was 4.515%.
Result for CCOCC1COCCC12CCN(C(=O)CS(C)(=O)=O)CC2 (stereo not shown) was -3.074%.
Result for c1ccc(-c2nc(CN3CCCC(Cn4cncn4)C3)no2)cc1 (stereo not shown) was -25.17%.
Result for COc1cccc(OCC2CCCN(C(=O)c3ccc(N)nc3)C2)c1 (stereo not shown) was 7.87%.
Result for [H][C@]12CC[C@]([H])(CN(Cc3cccnc3)C1)N(C(=O)Nc1ccc(F)cc1)C2 was -9.419%.
Result for NS(=O)(=O)NCc1cc(-c2ccco2)n(CC(F)(F)F)n1 was 1.105%.
Result for O=C(O)C(F)(F)F.[H][C@@]12CN(Cc3ccoc3)CCO[C@]1([H])CN(C(=O)CCc1ccccc1)C2 was -11.6% and -8.101%.
Result for COCCn1cc(CC(=O)Nc2nc[nH]n2)c2ccccc21 was -20.3%.
Result for CN(Cc1ccco1)C(=O)C1CSCN1C(=O)c1cccs1 (stereo not shown) was -17.03%.
Result for [H][C@@]12CS(=O)(=O)C[C@]1([H])N(C(=O)c1snnc1C)CCN2CC1CC1 was -6.091% and -10.38%.
Result for O=C(CN(CC(O)c1ccc(F)cc1)C1CC1)Nc1cccnc1 (stereo not shown) was -40.78%.
Result for CC(NCc1ccncc1)c1cc2c(cc1Br)OCCO2 (stereo not shown) was -4.786%.
Result for COc1ccc(-c2nc(CN3CCCS3(=O)=O)co2)cc1 was -20.52%.
Result for CC(C)c1cc(C(=O)O)nc2[nH]c(=O)[nH]c(=O)c12 was -13.43%.
Result for COc1c(C2CCCN2Cc2c(C)noc2C)c(C)nn1C (stereo not shown) was -2.874%.
Result for Cc1noc(C)c1CN1C[C@@H](NS(=O)(=O)N(C)C)[C@H](C(C)C)C1 was 24.09%.
Result for COCCN1CCC(c2nc3c([nH]2)CCCNC3=O)CC1 was 5.906%.
Result for O=C(CNC(=O)C1CC1)NCC1CCCC1 was 19.65%.
Result for COc1ccccc1OCCNc1snc(Cl)c1C#N was -9.9%.
Result for CC(=O)N(C)Cc1cccc(NC(=O)N(C)Cc2nccs2)c1 was -17.37%.
Result for CCNC(=O)[C@@H]1C[C@H](n2cc(CC3CCCCC3)nn2)CN1 was 8.951% and -24.92%.
Result for O=C(O)C(F)(F)F.O=C(O)C(F)(F)F.[H][C@@]12COC[C@]1(COc1cccnc1)CN(C1CCC1)C2 was -12.76%.
Result for Cc1cc(NC(C)c2nncn2C2CCCC2)n2nc(C)c(C)c2n1 (stereo not shown) was 13.92%.
Result for Cn1cnc(S(=O)(=O)N2CCCC2c2ccnc3nccn23)c1 (stereo not shown) was -29.21% and -6.833%.
Result for CCN(CC)CCCNCc1cc2cccc(C)c2[nH]c1=O was -14.17%.
Result for CN(C)CC(=O)N1CCC2(CCN(Cc3cccc(F)c3)CC2)C1 was -15.97%.
Result for COc1ccc(CN2CCCn3cnc(COCC4CC4)c3C2)cc1.O=C(O)C(F)(F)F was -3.663%.
Result for CCC(CNC(=O)c1cc(CC(C)C)nn1C)N(C)CC (stereo not shown) was -5.504%.
Result for COCCOC(=O)N1CCn2nc(CN(C)Cc3nccs3)cc2C1 was -4.803%.
Result for Fc1cccc(CNc2cncc(-n3cccn3)n2)c1 was 30.74%.
Result for Cc1ccc(OCC(O)CN2CCC(Cn3cccn3)CC2)cc1 (stereo not shown) was 4.284%.
Result for O=C(O)C(F)(F)F.[H][C@@]12COC[C@H](C(=O)N3CCOCC3)[C@]1([H])CN(C1CCCCC1)C2 was -13.91%.
Result for FC(F)(F)CCc1ccnc(N[C@H]2CC[C@H](n3cnnc3)CC2)n1 was 2.16%.
Result for C[C@H](NS(C)(=O)=O)C(=O)NCc1cc(-c2ccco2)n(CC(F)(F)F)n1 was -13.66%.
Result for OC1(CNCCN2CCc3ccccc32)CNCCOC1 (stereo not shown) was 18.87%.
Result for Cc1cccc(C(C(=O)N2CC(c3ccncc3)C2)N(C)C)c1 (stereo not shown) was -17.61%.
Result for Cn1nccc1-c1cc(C2CCN(S(C)(=O)=O)CC2)ccn1 was 7.36%.
Result for CC(C)n1cnnc1CN(C)C1CCCNC1 (stereo not shown) was 15.59%.

3 of the entries, repeated:

SMILES,Percent Effect
O=C(O)C(F)(F)F.[H][C@@]12COC[C@H](C(=O)N3CCOCC3)[C@]1([H])CN(C1CCCCC1)C2,-13.91
CCC(CNC(=O)c1cc(CC(C)C)nn1C)N(C)CC (stereo not shown),-5.504
CC(NCc1ccncc1)c1cc2c(cc1Br)OCCO2 (stereo not shown),-4.786

The values are deposited in ChEMBL (CHEMBL3988442, “University of Dundee, Small-Polar-MMV Screening Library” (2021)).